# From the supplement of paper PMC9135407
# Values joined by “and” are separate entries in the source; they are usually repeats but may differ in a detail not shown here. Equal entries are not always repeated. Structures can show the parent of a compound that is named as a salt. ± gives the standard deviation of the averaged measurements. Some of the results follow. Part of the spread comes from offsets between plates or batches.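 Culture-activated primary human stellate myofibroblasts, where regained lipid droplets signal inactivation. Value: share of Hoechst-counted cells above a per-plate Bodipy cutoff, in duplicate wells, with DMSO negative and nortriptyline positive controls on each plate. Hits: a control-normalized score above the plate's top-tenth-percentile nortriptyline wells, or one of a plate's three best wells. Final well concentrations are not given.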
# System: primary human hepatic stellate cells (donor 1)
# Experiment: percent Bodipy-positive cells; higher = more lipid droplet accumulation
# Conditions: 48 h
# [1] = library stock concentration: 3.33 mM
# [2] = library stock concentration: 10 mM
# [3] = library stock concentration: 1 mM
# [4] = library stock concentration: 2 mM
# [5] = library stock concentration: 400 uM
# [6] = library stock concentration: 80 uM
# [7] = library stock concentration: 10.6 mM
compound,measurement,setting,value
CC(C)N(CCC(=O)c1ccc2ccccc2c1)Cc1ccccc1,percent Bodipy-positive cells,[1],91.1 ± 0.92%
same,percent Bodipy-positive cells,[2],97.9 ± 3%
"CC(C)(C)C#Cc1cc(N(C(=O)[C@H]2CC[C@H](C)CC2)[C@H]2CC[C@H](O)CC2)c(C(=O)O)s1 [VX-222 (VCH-222, Lomibuvir)]",percent Bodipy-positive cells,[1],12.4 ± 7%
same,percent Bodipy-positive cells,[2],35 ± 1.6%
CCOC(=O)c1ccc(C#Cc2ccc3c(c2)C(C)(C)CCS3)nc1 [Tazarotene],percent Bodipy-positive cells,[1],15.5 ± 5.3%
same,percent Bodipy-positive cells,[2],21.9 ± 0.46%
C#CCCCCCCCCCNC(=O)Oc1cccc(-c2cccc(C(N)=O)c2)c1,percent Bodipy-positive cells,[3],8.28 ± 3.1%
CCC(C)(C)c1ccc(CC(C)CN2C[C@@H](C)O[C@@H](C)C2)cc1 (stereo partly specified) [Amorolfine],percent Bodipy-positive cells,library stock concentration: 6.3 mM,23.3 ± 15%
CCC(C)(C)c1ccc(CC(C)CN2C[C@@H](C)O[C@@H](C)C2)cc1 (stereo partly specified),percent Bodipy-positive cells,[2],45 ± 3.8%
CCC(C)(C)c1ccc(CC(C)CN2C[C@@H](C)O[C@@H](C)C2)cc1 (stereo partly specified) [Amorolfine HCl],percent Bodipy-positive cells,[1],16.6 ± 0.68%
same,percent Bodipy-positive cells,[2],50.5 ± 12%
CCCCC/C=C\C/C=C\CC/C=C\CCCC(=O)O [Pinolenic Acid],percent Bodipy-positive cells,[3],6.78 ± 1.7%
COc1ccc(-c2cc3c(C)nc(N)nc3n([C@H]3CC[C@H](OCCO)CC3)c2=O)cn1,percent Bodipy-positive cells,[1],7.85 ± 2.4%
same,percent Bodipy-positive cells,[2],44.4 ± 4%
CCCCCCCCNC(=O)Cc1c(C)n(C(=O)c2ccc(Cl)cc2)c2ccc(OC)cc12 [Indomethacin N-octyl amide],percent Bodipy-positive cells,[3],26.4 ± 26%
CC(C)(C)c1cc(NC(=O)Nc2ccc(-c3cn4c(n3)sc3cc(OCCN5CCOCC5)ccc34)cc2)no1 [Quizartinib  (AC220) (10 mM)],percent Bodipy-positive cells,[2],97.084 ± 0.083%
CC(C)(C)c1cc(NC(=O)Nc2ccc(-c3cn4c(n3)sc3cc(OCCN5CCOCC5)ccc34)cc2)no1 [Quizartinib  (AC220) (2 mM)],percent Bodipy-positive cells,[4],66.5 ± 5.7%
Cn1c(=O)c(F)c(Nc2ccc(I)cc2F)c2c(=O)n(C[C@@H](O)CO)cnc21,percent Bodipy-positive cells,[1],20.5 ± 7.5%
same,percent Bodipy-positive cells,[2],34.6 ± 4.7%
CCOc1ccc(-c2nc3ccc(-c4nc5ccc(N6CCN(C)CC6)cc5[nH]4)cc3[nH]2)cc1,percent Bodipy-positive cells,library stock concentration: 8.9 mM,94.6 ± 7.6%
CCc1c(C(=O)NCCc2ccc(N3CCCCC3)cc2)[nH]c2ccc(Cl)cc12,percent Bodipy-positive cells,[1],8.99 ± 0.1%
same,percent Bodipy-positive cells,[2],83.2 ± 7.2%
CCCCC[C@H](O)/C=C/[C@@H]1[C@H](CCCCCCC(=O)O)[C@H](O)C[C@H]1O [8-iso Prostaglandin F1.beta.],percent Bodipy-positive cells,[3],16.3 ± 0.37%
CC/C=C/C/C=C/C/C=C/C/C=C/CCCCC(=O)OC [Stearidonic Acid methyl ester],percent Bodipy-positive cells,[3],16.8 ± 4.8%
O=C(Nc1cccc(Cl)c1)Nc1ncc(CCNc2ncnc3ccsc23)s1,percent Bodipy-positive cells,[5],11.6 ± 1.9%
same,percent Bodipy-positive cells,[4],20 ± 0.95%
same,percent Bodipy-positive cells,[2],29.4 ± 3.3%
O=C(Nc1cccc(Cl)c1)Nc1ncc(CCNc2ncnc3ccsc23)s1 [SNS-314 Mesylate],percent Bodipy-positive cells,[1],20.4 ± 1.6%
same,percent Bodipy-positive cells,[2],36.05 ± 0.2%
CCN1CCN(Cc2ccc(Nc3ncc4c(n3)N(C)c3ccccc3C(=O)N4C)cc2C(F)(F)F)CC1,percent Bodipy-positive cells,[6],19.1 ± 3.6%
same,percent Bodipy-positive cells,[5],26.5 ± 2.1%
same,percent Bodipy-positive cells,[4],37.5 ± 4.9%
same,percent Bodipy-positive cells,[2],98.3 ± 0.99%
Nc1ncnc2c1c(-c1cccc(OCc3ccccc3)c1)cn2C1CC(CN2CCCC2)C1 (stereo unspecified),percent Bodipy-positive cells,[2],96.8 ± 4.5%
"CCCCC/C=C\C/C=C\C/C=C\CCCC/C=C\CCC(=O)O [cis-4,10,13,16-Docosatetraenoic Acid]",percent Bodipy-positive cells,[3],22.4 ± 20%
CNC(=O)CN1CCC(Oc2cc3c(Nc4cccc(Cl)c4F)ncnc3cc2OC)CC1 [AZD8931 (Sapitinib)],percent Bodipy-positive cells,[1],40.2 ± 11%
same,percent Bodipy-positive cells,[2],69.2 ± 3.5%
CCCCC[C@H](O)/C=C/[C@H]1C=CC(=O)[C@H]1C/C=C\CCCC(=O)O [8-iso Prostaglandin A2],percent Bodipy-positive cells,[3],15.7 ± 3.7%
CCN1CCCC1CNC(=O)c1cc(S(=O)(=O)CC)c(N)cc1OC (stereo unspecified) [Amisulpride],percent Bodipy-positive cells,[1],25.3 ± 6.1%
Nc1nc(N)nc(-c2cc(Cl)ccc2Cl)n1 [Irsogladine],percent Bodipy-positive cells,[1],11.2 ± 2.5%
same,percent Bodipy-positive cells,[2],10.6 ± 2.2%
Nc1nc(N)nc(-c2cc(Cl)ccc2Cl)n1 [Irsogladine maleate],percent Bodipy-positive cells,library stock concentration: 7.8 mM,11 ± 0.26%
same,percent Bodipy-positive cells,[2],10.8 ± 2.6%
Nc1nc(N)nc(-c2cc(Cl)ccc2Cl)n1,percent Bodipy-positive cells,[2],12.5 ± 1.3%
CCCS(=O)(=O)Nc1ccc(F)c(C(=O)c2c[nH]c3ncc(Cl)cc23)c1F,percent Bodipy-positive cells,[6],9.41 ± 4.6%
same,percent Bodipy-positive cells,[5],9.61% and 16.7%
same,percent Bodipy-positive cells,[4],10.9% and 10.3%
same,percent Bodipy-positive cells,[1],6.65 ± 3%
same,percent Bodipy-positive cells,[2],17.9% and 12.6%
CCCCCCCCCCCCCCCC(O)C(N)CO (racemic) [DL-Dihydrosphingosine],percent Bodipy-positive cells,[3],6.57 ± 6.9%
S=P(N1CC1)(N1CC1)N1CC1 [Thiotepa],percent Bodipy-positive cells,[2],27 ± 4.5%
same,percent Bodipy-positive cells,[7],13.4 ± 1.1%
COc1cc(N)c(Cl)cc1C(=O)NC1CCN(Cc2ccccc2)CC1 [Clebopride maleate],percent Bodipy-positive cells,,43.7 ± 6.8%
same,percent Bodipy-positive cells,[2],48.2 ± 12%
O=C(Nc1cc(Cl)cc2c1[nH]c1cnccc12)c1cccnc1 [IKK Inhibitor X],percent Bodipy-positive cells,[1],17.6 ± 6.7%
CCCC[C@H](C)C[C@H](O)/C=C/[C@H]1[C@H](O)CC(=O)[C@@H]1CCCC/C=C/C(=O)O [Limaprost],percent Bodipy-positive cells,[3],21.6 ± 7%
C[C@@H](O)[C@H]1C(=O)N2C(C(=O)OCOC(=O)C(C)(C)C)=C(SC3CN(C4=NCCS4)C3)[C@H](C)[C@H]12 [Tebipenem Pivoxil],percent Bodipy-positive cells,[1],5.81 ± 2.7%
same,percent Bodipy-positive cells,[2],10.5 ± 0.31%
CCCCOc1ccc(OCCCN2CCOCC2)cc1 [Pramoxine hydrochloride],percent Bodipy-positive cells,,27.7 ± 5.7%
same,percent Bodipy-positive cells,library stock concentration: 6.1 mM,48.4 ± 4%
same,percent Bodipy-positive cells,[2],58.1 ± 16%
CCCCOc1ccc(OCCCN2CCOCC2)cc1 [Pramoxine HCl],percent Bodipy-positive cells,[1],16.2 ± 4.1%
same,percent Bodipy-positive cells,[2],67.249 ± 0.035%
CC1CCc2cc(F)cc3c(=O)c(C(=O)O)cn1c23 (stereo unspecified) [Flumequine],percent Bodipy-positive cells,,25.4 ± 0.83%
same,percent Bodipy-positive cells,[1],7.43 ± 1.2%
same,percent Bodipy-positive cells,library stock concentration: 7.7 mM,10.4 ± 2%
same,percent Bodipy-positive cells,[2],24.3% and 25%
O=C(NCC1CCCCN1)c1cc(OCC(F)(F)F)ccc1OCC(F)(F)F (stereo unspecified) [Flecainide],percent Bodipy-positive cells,library stock concentration: 4.8 mM,16.7 ± 4.7%
O=C(NCC1CCCCN1)c1cc(OCC(F)(F)F)ccc1OCC(F)(F)F (stereo unspecified) [Flecainide acetate],percent Bodipy-positive cells,,15.5 ± 3.7%
same,percent Bodipy-positive cells,[2],30.2 ± 4.6%
same,percent Bodipy-positive cells,[7],46.5 ± 1.7%
COc1cc(N2CCC(N3CCN(C)CC3)CC2)ccc1Nc1ncc(Cl)c(Nc2ccccc2S(=O)(=O)C(C)C)n1,percent Bodipy-positive cells,[6],8.5 ± 1.5%
same,percent Bodipy-positive cells,[5],23.7 ± 3.5%
same,percent Bodipy-positive cells,[4],63.55 ± 0.17%
same,percent Bodipy-positive cells,[2],73.042 ± 0.027%
CC1(C)S[C@@H]2[C@H](/N=C/N3CCCCCC3)C(=O)N2[C@H]1C(=O)O,percent Bodipy-positive cells,[2],7.91 ± 3.6%
CC(C)c1nc(CN(C)C(=O)N[C@H](C(=O)N[C@@H](Cc2ccccc2)C[C@H](O)[C@H](Cc2ccccc2)NC(=O)OCc2cncs2)C(C)C)cs1,percent Bodipy-positive cells,[2],20.6 ± 10%
CC(C)c1nc(CN(C)C(=O)N[C@H](C(=O)N[C@@H](Cc2ccccc2)C[C@H](O)[C@H](Cc2ccccc2)NC(=O)OCc2cncs2)C(C)C)cs1 [Ritonavir],percent Bodipy-positive cells,[1],8.04 ± 1.1%
same,percent Bodipy-positive cells,[2],19.3 ± 6.4%
O=C(CCCCc1ccccc1)C(F)(F)C(F)(F)F,percent Bodipy-positive cells,[3],8.47 ± 2%
CCCOC(=O)c1c(-c2ccccc2)nc(CC)c(C(=O)SCC)c1CCC,percent Bodipy-positive cells,[2],63.3 ± 10%

# Reprinted from the entries so far (four entries):
compound,measurement,setting,value
O=C(Nc1cccc(Cl)c1)Nc1ncc(CCNc2ncnc3ccsc23)s1,percent Bodipy-positive cells,[4],20 ± 0.95%
same,percent Bodipy-positive cells,[2],29.4 ± 3.3%
O=C(Nc1cccc(Cl)c1)Nc1ncc(CCNc2ncnc3ccsc23)s1 [SNS-314 Mesylate],percent Bodipy-positive cells,[1],20.4 ± 1.6%
same,percent Bodipy-positive cells,[2],36.05 ± 0.2%
